From article PMC3961174
These are yes or no findings as the source states them, for the method shown. Some entries that bind do so weakly or less than the wild type.

The chains behind the UniProt entries cited, without tags or fusion partners.
UniProt O60264: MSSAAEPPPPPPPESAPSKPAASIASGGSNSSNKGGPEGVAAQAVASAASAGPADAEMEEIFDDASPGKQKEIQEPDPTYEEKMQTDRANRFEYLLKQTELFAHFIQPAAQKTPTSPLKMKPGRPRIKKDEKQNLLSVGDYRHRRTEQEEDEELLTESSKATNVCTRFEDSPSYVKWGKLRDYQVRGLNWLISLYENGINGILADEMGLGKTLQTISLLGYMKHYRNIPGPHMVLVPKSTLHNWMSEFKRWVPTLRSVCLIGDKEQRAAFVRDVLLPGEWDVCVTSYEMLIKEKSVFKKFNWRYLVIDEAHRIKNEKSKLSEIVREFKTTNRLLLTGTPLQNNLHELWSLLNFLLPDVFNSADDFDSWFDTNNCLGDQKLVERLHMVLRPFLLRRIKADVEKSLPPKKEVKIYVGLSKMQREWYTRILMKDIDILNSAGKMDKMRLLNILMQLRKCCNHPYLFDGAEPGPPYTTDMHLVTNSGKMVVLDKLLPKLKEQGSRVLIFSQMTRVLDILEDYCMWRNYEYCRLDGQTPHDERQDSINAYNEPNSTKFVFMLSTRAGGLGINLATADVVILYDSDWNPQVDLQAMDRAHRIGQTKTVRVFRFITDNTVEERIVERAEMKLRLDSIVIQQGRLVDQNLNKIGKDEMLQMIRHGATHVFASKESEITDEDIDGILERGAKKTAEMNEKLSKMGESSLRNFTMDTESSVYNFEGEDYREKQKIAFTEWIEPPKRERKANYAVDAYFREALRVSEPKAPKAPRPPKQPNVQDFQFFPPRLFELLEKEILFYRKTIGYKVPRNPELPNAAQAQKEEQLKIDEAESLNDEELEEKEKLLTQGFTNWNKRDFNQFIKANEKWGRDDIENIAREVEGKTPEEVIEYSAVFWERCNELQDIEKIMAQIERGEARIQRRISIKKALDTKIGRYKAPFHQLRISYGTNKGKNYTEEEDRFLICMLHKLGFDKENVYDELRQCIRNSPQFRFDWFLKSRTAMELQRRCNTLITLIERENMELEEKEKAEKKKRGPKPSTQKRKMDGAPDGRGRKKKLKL
UniProt Q91YE5: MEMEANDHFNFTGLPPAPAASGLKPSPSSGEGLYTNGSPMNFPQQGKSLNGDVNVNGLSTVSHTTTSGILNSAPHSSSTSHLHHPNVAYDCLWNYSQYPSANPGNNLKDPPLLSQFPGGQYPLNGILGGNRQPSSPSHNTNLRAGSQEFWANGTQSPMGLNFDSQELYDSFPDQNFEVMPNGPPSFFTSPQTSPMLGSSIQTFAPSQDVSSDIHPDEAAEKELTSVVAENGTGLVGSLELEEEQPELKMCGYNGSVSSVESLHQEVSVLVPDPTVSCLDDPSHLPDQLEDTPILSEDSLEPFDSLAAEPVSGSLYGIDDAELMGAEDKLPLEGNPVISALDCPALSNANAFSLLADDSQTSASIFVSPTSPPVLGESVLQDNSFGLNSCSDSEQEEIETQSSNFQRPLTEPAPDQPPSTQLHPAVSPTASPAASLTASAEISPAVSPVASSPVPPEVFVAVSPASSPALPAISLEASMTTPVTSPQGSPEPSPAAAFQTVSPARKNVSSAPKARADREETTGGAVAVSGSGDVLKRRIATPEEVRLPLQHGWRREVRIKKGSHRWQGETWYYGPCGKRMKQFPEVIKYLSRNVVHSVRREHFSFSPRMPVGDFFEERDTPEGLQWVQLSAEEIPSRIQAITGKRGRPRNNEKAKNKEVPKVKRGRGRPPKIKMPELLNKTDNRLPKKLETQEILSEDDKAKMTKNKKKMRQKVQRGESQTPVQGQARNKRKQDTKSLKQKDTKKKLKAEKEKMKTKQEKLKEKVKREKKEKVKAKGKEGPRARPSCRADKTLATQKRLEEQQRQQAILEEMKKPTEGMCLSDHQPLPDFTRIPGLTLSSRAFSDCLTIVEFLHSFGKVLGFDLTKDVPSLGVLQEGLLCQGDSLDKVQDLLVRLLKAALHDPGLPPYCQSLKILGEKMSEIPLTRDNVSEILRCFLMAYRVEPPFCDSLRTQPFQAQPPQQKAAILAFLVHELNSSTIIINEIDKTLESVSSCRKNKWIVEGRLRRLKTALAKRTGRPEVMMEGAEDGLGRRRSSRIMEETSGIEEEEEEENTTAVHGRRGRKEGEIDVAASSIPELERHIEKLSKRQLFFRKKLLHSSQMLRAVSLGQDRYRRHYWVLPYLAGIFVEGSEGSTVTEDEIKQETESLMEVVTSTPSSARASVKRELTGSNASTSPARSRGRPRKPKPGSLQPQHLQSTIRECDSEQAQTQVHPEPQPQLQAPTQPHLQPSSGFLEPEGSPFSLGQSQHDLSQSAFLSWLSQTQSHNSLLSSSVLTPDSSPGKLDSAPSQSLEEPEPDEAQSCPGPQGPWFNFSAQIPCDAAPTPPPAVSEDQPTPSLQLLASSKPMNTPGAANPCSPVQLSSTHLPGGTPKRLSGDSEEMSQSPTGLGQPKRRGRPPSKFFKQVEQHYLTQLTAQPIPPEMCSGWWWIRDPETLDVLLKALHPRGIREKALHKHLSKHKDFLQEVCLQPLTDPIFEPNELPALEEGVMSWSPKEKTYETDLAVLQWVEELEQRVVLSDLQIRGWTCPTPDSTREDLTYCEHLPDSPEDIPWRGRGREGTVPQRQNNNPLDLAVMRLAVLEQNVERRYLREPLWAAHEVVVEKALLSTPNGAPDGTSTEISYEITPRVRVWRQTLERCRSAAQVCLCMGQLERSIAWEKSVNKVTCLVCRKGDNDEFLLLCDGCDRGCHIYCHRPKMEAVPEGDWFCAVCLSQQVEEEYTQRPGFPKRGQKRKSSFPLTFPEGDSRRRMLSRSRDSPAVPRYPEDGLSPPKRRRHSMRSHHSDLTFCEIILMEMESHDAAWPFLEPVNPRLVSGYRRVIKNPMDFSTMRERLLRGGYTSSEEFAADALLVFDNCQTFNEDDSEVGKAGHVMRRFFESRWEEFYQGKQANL

Target: Snf2H (UniProt O60264)
Test: co-purification (Ni-NTA affinity chromatography); Snf2H (N-terminal His tag) and Tip5 co-expressed in SF21 cells with baculovirus; complex purified via Ni-NTA by the His tag of Snf2H; analysed by SDS-PAGE and Coomassie staining

- binding: binds
Substance: Tip5 (TTFI interacting protein 5) (from UniProt Q91YE5 1-1889)
